According to the supplement of paper PMC12595434, “Development of retinoid nuclear receptor pathway antagonists through targeting aldehyde dehydrogenase 1A3” (iScience, 2025):
The list shows a part of the results. The data scatter; read single values as rough.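 Tm was set to 64 °C where no melting was found, and many curves are irregular.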

Sequences of proteins named here, by UniProt entry; tags and fusion partners are left off. A change or cut given only in a name is not applied to a line headed by its entry.
UniProt Q9Y2L9: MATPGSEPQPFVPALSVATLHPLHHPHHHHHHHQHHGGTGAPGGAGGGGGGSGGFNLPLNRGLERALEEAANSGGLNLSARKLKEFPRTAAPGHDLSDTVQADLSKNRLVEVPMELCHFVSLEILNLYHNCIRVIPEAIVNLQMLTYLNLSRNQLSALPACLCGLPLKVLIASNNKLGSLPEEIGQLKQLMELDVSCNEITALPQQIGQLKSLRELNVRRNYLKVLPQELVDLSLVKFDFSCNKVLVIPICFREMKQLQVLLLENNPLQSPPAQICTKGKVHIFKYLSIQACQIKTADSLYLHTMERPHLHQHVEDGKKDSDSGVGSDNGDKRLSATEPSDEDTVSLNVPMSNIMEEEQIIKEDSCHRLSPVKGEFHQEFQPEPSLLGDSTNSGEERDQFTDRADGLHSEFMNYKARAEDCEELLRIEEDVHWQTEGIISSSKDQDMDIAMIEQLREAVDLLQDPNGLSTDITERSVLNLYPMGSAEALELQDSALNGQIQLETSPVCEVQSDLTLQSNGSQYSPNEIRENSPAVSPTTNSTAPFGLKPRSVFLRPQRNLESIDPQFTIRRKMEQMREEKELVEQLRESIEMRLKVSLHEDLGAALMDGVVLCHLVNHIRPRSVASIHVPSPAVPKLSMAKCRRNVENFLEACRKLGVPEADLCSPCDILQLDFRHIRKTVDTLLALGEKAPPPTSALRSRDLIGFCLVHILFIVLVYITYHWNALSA
UniProt Q9Y4C1: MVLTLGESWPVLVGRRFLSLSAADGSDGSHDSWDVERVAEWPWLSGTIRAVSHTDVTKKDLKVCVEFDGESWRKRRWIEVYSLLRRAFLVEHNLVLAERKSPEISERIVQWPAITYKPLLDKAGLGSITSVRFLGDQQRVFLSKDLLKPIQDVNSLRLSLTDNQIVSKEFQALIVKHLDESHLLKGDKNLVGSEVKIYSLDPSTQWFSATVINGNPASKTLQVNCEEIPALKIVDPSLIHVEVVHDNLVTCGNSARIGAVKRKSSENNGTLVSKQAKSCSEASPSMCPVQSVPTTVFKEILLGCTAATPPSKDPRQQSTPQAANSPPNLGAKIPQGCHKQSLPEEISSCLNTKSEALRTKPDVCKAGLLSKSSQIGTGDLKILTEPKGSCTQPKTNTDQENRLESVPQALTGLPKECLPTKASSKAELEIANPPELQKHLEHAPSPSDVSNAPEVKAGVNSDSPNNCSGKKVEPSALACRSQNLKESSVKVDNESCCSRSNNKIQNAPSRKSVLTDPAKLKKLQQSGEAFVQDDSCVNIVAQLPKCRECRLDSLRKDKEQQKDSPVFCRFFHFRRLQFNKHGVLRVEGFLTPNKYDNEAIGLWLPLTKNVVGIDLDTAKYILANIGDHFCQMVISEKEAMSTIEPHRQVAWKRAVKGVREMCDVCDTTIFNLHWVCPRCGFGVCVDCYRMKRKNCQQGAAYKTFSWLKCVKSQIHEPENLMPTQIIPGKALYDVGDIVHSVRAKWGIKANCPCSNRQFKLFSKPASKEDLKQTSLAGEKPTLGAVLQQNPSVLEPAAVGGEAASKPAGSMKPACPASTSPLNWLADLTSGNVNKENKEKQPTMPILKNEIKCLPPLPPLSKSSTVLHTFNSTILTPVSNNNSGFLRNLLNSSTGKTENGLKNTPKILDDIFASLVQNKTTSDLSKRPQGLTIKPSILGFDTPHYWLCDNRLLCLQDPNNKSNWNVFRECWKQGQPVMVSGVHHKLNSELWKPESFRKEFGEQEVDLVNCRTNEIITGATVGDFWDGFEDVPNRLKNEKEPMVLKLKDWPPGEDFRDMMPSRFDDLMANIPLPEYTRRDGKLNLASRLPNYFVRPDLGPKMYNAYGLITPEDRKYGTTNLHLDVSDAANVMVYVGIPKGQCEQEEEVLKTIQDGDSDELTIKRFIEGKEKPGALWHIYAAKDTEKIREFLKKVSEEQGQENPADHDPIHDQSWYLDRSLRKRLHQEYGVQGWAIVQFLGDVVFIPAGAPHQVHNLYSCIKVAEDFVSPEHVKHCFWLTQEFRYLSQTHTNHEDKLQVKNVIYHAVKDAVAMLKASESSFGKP
UniProt Q9Y512: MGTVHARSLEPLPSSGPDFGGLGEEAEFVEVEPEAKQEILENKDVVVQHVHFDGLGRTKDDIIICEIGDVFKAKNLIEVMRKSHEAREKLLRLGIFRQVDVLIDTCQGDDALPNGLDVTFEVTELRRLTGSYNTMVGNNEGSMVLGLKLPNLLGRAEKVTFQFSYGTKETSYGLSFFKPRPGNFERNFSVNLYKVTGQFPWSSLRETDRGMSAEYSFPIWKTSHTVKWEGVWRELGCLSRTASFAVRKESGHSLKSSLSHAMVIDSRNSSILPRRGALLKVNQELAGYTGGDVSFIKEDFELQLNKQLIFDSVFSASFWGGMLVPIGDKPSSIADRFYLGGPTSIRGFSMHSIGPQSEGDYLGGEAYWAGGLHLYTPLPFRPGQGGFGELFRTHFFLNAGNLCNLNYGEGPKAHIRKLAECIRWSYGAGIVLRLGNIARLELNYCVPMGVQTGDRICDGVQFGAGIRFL
UniProt Q9Y2Z0: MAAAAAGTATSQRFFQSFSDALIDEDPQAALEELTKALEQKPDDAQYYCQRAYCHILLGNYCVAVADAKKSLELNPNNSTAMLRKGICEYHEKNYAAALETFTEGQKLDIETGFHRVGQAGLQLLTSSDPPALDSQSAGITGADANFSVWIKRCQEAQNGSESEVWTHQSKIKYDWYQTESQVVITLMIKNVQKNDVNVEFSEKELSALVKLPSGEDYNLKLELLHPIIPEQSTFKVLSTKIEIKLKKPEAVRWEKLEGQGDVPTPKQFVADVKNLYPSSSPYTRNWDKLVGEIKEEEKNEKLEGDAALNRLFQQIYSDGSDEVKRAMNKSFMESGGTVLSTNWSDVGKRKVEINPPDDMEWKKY
UniProt Q9Y3D7: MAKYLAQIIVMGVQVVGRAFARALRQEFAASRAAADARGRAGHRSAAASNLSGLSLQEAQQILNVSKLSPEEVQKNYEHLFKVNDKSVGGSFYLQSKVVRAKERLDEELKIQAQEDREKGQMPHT
UniProt Q9Y3E2: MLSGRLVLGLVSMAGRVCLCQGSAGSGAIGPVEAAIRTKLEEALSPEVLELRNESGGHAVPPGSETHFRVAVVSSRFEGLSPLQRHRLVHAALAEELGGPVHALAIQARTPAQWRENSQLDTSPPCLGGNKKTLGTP
UniProt Q9Y618, whole entry: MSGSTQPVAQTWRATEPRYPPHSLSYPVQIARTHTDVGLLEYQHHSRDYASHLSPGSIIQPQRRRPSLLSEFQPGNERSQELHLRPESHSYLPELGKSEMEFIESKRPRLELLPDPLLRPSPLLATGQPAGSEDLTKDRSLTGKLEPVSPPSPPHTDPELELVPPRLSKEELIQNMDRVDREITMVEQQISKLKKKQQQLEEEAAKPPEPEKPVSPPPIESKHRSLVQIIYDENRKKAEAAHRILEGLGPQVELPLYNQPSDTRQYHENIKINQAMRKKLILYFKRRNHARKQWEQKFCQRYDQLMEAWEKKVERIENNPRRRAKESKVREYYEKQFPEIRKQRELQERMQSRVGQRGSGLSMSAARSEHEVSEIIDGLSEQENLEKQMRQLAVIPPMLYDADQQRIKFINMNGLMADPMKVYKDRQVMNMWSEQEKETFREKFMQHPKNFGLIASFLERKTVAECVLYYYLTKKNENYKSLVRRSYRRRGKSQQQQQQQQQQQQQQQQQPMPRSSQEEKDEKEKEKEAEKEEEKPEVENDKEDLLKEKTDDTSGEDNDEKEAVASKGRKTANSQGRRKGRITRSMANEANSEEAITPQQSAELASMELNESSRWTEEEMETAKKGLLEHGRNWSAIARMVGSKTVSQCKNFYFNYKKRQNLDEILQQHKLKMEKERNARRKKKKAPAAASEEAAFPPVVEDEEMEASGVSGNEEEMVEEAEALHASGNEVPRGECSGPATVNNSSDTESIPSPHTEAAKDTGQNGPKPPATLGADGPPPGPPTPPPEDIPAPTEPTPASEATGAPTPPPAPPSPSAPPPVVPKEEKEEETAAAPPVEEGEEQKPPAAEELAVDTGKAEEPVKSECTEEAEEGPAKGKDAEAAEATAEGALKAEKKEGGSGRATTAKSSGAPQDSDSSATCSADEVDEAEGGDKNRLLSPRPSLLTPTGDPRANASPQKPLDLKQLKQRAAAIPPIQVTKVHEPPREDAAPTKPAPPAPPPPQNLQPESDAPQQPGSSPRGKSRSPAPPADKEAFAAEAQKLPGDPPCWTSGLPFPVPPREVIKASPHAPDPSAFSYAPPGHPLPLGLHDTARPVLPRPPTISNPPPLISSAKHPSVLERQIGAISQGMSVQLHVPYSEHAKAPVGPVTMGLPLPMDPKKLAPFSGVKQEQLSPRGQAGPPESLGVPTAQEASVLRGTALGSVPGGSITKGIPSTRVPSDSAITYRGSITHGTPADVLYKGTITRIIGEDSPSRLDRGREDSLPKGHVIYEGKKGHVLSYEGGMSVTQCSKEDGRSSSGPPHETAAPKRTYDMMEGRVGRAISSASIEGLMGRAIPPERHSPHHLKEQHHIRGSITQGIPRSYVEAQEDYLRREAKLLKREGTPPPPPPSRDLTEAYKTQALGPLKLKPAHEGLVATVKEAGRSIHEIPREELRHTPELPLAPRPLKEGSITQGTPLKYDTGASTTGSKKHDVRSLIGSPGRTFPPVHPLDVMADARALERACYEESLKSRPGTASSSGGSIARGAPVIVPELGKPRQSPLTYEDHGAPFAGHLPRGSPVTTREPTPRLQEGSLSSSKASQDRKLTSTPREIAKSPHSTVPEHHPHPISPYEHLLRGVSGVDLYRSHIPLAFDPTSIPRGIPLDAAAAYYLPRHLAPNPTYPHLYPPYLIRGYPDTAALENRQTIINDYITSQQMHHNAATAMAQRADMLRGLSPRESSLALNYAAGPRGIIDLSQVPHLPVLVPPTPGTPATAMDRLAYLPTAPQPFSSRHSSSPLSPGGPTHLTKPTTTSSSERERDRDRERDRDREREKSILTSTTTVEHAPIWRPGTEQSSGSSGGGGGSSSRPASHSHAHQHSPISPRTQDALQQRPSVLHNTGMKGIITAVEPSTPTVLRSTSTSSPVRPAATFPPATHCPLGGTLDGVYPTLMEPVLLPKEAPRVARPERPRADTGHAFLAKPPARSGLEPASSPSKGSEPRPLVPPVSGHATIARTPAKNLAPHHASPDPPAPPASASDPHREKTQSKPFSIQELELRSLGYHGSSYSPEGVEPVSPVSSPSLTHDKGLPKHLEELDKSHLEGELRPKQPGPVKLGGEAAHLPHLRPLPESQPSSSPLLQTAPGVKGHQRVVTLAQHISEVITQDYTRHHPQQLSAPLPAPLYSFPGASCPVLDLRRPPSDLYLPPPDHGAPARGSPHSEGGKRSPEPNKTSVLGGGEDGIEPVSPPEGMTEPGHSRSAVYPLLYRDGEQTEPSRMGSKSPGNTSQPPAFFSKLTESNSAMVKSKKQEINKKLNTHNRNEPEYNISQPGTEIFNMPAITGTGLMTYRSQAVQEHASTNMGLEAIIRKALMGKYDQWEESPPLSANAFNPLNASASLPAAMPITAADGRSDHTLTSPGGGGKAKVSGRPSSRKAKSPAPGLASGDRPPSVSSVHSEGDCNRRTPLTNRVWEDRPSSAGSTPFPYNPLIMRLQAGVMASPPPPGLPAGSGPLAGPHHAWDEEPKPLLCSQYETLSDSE
UniProt Q9Y4R8, whole entry: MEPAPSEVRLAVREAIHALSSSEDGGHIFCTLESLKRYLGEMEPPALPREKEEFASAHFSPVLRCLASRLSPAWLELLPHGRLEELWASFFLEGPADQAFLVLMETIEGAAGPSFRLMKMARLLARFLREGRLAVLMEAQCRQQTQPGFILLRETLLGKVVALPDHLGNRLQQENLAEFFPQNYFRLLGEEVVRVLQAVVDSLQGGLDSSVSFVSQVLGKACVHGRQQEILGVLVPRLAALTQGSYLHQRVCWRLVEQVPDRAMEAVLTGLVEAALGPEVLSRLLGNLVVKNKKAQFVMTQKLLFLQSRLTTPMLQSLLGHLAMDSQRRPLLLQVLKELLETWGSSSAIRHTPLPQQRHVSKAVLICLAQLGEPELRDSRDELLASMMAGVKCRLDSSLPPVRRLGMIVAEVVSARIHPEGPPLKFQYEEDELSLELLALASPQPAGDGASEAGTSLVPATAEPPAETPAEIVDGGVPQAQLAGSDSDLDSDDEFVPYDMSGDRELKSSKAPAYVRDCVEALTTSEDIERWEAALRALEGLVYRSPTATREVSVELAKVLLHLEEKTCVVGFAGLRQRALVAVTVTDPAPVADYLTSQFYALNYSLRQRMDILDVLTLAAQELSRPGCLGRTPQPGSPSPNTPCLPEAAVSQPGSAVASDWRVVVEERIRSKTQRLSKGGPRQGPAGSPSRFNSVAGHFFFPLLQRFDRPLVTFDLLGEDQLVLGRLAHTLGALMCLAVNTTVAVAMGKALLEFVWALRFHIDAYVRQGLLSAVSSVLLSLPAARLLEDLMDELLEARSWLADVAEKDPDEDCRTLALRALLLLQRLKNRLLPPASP

compound: CCc1cnccc1C(=O)Nc1cc2c(cc1F)NC(=O)CC2; test: melting temperature shift (DMSO Tm minus MBE1-treated Tm) in cellular thermal proteome profiling; higher = less thermal stabilization by MBE1 (negative = stabilized by MBE1); settings: A375; MBE1 concentration: 100 nM

Row | Target | melting temperature shift
1 | UniProt Q9Y4K1 | -0.348 °C
2 | YARS2 (UniProt Q9Y2Z4) | -0.621 °C
3 | UTP18 (UniProt Q9Y5J1) | 0.409 °C
4 | LRCH1 (UniProt Q9Y2L9) | -0.542 °C
5 | SAMHD1 (UniProt Q9Y3Z3) | -1.53 °C
6 | FHOD1 (UniProt Q9Y613) | -0.685 °C
7 | MRPS7 (UniProt Q9Y2R9) | -0.11 °C
8 | KDM3A (UniProt Q9Y4C1) | -0.901 °C
9 | SAMM50 (UniProt Q9Y512) | -3.62 °C
10 | RPL36 (UniProt Q9Y3U8) | -0.478 °C
11 | SUGT1 (UniProt Q9Y2Z0) | -0.734 °C
12 | UniProt Q9Y3D7 | -1.82 °C
13 | R3HCC1 (UniProt Q9Y3T6) | -0.159 °C
14 | STRAP (UniProt Q9Y3F4) | -1.29 °C
15 | UniProt Q9Y535 | -1.22 °C
16 | HYOU1 (UniProt Q9Y4L1) | -1.21 °C
17 | UniProt Q9Y6C2 | -0.461 °C
18 | UniProt Q9Y3M8 | -0.0794 °C
19 | SBDS (UniProt Q9Y3A5) | 0.708 °C
20 | UniProt Q9Y2Q0 | -1.83 °C

Row | Target | melting temperature shift
21 | UniProt Q9Y2K6 | 0.134 °C
22 | UniProt Q9Y3E2 | -0.59 °C
23 | NCOR2 (UniProt Q9Y618) | -2.82 °C
24 | PPIL1 (UniProt Q9Y3C6) | -0.573 °C
25 | PUS1 (UniProt Q9Y606) | -0.179 °C
26 | AP4B1 (UniProt Q9Y6B7) | 0.0047 °C
27 | MTO1 (UniProt Q9Y2Z2) | 0.339 °C
28 | MRPS28 (UniProt Q9Y2Q9) | 1.26 °C
29 | CAB39 (UniProt Q9Y376) | -0.922 °C
30 | ATP6V1D (UniProt Q9Y5K8) | 0.136 °C
31 | UniProt Q9Y2U5 | -0.256 °C
32 | UFC1 (UniProt Q9Y3C8) | -1.1 °C
33 | TSC22D4 (UniProt Q9Y3Q8) | -0.977 °C
34 | TELO2 (UniProt Q9Y4R8) | -0.645 °C
35 | UniProt Q9Y5V3 | -2.12 °C
36 | COPG1 (UniProt Q9Y678) | -0.658 °C
37 | TSSC4 (UniProt Q9Y5U2) | 0.653 °C
38 | ZNF330 (UniProt Q9Y3S2) | -0.766 °C
39 | ALG5 (UniProt Q9Y673) | -0.845 °C
40 | ARFGEF1 (UniProt Q9Y6D6) | 0.727 °C

same assay, conditions: A375; MBE1 concentration: 1 uM

Row | Target | melting temperature shift
41 | UniProt Q9Y4K1 | -0.528 °C
42 | YARS2 (UniProt Q9Y2Z4) | -0.256 °C
43 | UTP18 (UniProt Q9Y5J1) | 0.183 °C
44 | LRCH1 (UniProt Q9Y2L9) | -0.173 °C
45 | SAMHD1 (UniProt Q9Y3Z3) | -0.335 °C
46 | FHOD1 (UniProt Q9Y613) | -0.487 °C
47 | MRPS7 (UniProt Q9Y2R9) | -0.244 °C
48 | KDM3A (UniProt Q9Y4C1) | -0.484 °C
49 | SAMM50 (UniProt Q9Y512) | -2.83 °C
50 | RPL36 (UniProt Q9Y3U8) | 2.32 °C
51 | SUGT1 (UniProt Q9Y2Z0) | 0.0183 °C
52 | UniProt Q9Y3D7 | -0.389 °C
53 | R3HCC1 (UniProt Q9Y3T6) | 0.244 °C
54 | STRAP (UniProt Q9Y3F4) | 0.208 °C
55 | UniProt Q9Y535 | -0.863 °C
56 | HYOU1 (UniProt Q9Y4L1) | 0.53 °C
57 | UniProt Q9Y6C2 | 0.617 °C
58 | UniProt Q9Y3M8 | -1.7 °C
59 | SBDS (UniProt Q9Y3A5) | 0.421 °C
60 | UniProt Q9Y2Q0 | 1.31 °C

Row | Target | melting temperature shift
61 | UniProt Q9Y2K6 | -3.03 °C
62 | UniProt Q9Y3E2 | 1.69 °C
63 | NCOR2 (UniProt Q9Y618) | -3.73 °C
64 | PPIL1 (UniProt Q9Y3C6) | 0.0427 °C
65 | PUS1 (UniProt Q9Y606) | -0.474 °C
66 | AP4B1 (UniProt Q9Y6B7) | -0.198 °C
67 | MTO1 (UniProt Q9Y2Z2) | -3.75 °C
68 | MRPS28 (UniProt Q9Y2Q9) | -0.885 °C
69 | CAB39 (UniProt Q9Y376) | -0.0427 °C
70 | ATP6V1D (UniProt Q9Y5K8) | 0.656 °C
71 | UniProt Q9Y2U5 | -0.29 °C
72 | UFC1 (UniProt Q9Y3C8) | -1.19 °C
73 | TSC22D4 (UniProt Q9Y3Q8) | 0.336 °C
74 | TELO2 (UniProt Q9Y4R8) | -0.767 °C
75 | UniProt Q9Y5V3 | -0.237 °C
76 | COPG1 (UniProt Q9Y678) | 0.0672 °C
77 | TSSC4 (UniProt Q9Y5U2) | 1.03 °C
78 | ZNF330 (UniProt Q9Y3S2) | 2.03 °C
79 | ALG5 (UniProt Q9Y673) | -0.157 °C
80 | ARFGEF1 (UniProt Q9Y6D6) | -0.189 °C
